In patent US20090137527A1, “Compositions and methods for modulating immune function” (Resolvyx Pharmaceuticals, Inc., priority 2007, published 2009):
At least one compound was matched to its structure with a doubt left.

Test system: murine DNFB-induced DTH model
Assay: DNFB-induced delayed-type-hypersensitivity (DTH) model, ear swelling
Assay type: in vivo, mouse
Settings: dexamethasone 60 minutes prior to DNFB challenge
Procedure: Ear-swelling (swelling of the skin on the pinnae) was the endpoint of this model. This study was carried out over 6 to 7 days, with events occurring as described below.
Mice (female BALB/c; n=10/group) were immunized with 0.5% of DNFB dissolved in acetone/olive oil. Sensitization was done with the contact allergen, wherein 20 μL of the solution was placed on the footpads of the animals.
[…] The mice were challenged at day 5. 10 μL of a 0.8% DNFB solution was topically applied externally on the right ear of the animal. As control, the left ear was treated the same way with vehicle alone (acetone/olive oil).
Animals were anesthetized with isoflurane and the ear swelling was measured within 24 to 48 hours after challenge using a micrometer. The micrometer calipers were closed around the top portion of the each external ear until resistance from the ear was felt. […]

Q: For `C[C@@H]1C[C@H]2[C@@H]3CCC4=CC(=O)C=C[C@]4(C)[C@@]3(F)[C@@H](O)C[C@]2(C)[C@@]1(O)C(=O)CO` [dexamethasone, reference compound], which “inhibition of the DTH response, Compound X versus dexamethasone” value is on record?
A: Its value is “comparable levels of inhibition”.
